Experimental data published in PubChem BioAssay AID1439 (NMMLSC, 2008).
About 770 (0.35%) of roughly 220,000 compounds were called active. The shares of active, inactive and inconclusive entries below differ from those in the screen. Rule as the data show it: active = binding response below about 49% or above about 150%; inconclusive = no clear call, values can overlap the other calls; inactive = in between.

Chains of the proteins cited; added tags and fusions are not shown.
UniProt P09471, whole entry, looked up: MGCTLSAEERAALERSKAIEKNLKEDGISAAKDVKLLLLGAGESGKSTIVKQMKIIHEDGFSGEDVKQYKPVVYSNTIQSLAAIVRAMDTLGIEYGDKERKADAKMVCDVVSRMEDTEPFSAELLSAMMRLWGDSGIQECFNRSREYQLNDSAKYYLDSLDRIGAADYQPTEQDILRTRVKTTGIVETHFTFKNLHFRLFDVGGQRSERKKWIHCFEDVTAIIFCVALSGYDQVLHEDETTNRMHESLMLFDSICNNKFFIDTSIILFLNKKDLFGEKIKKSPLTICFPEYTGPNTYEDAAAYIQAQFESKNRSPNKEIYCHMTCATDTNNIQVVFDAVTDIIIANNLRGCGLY

Biological target: Guanine nucleotide-binding protein G(o) subunit alpha (Homo sapiens) (UniProt P09471)
Assay: RGS7-Galphao binding modulators, primary screen, biochemical, multiplexed bead flow cytometry (AID 1439);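 also: fluorescent Galphao held in activated GDP-AlF4 state binding bead-coupled RGS7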
Settings: at 10 µM, actives lie on both sides

| SMILES | binding response (% of control) |
| --- | --- |
| Cc1ccc(NC(=O)CNCc2ccccn2)cc1S(=O)(=O)N(C)C | inconclusive: 79.4% |
| CC1CCCCN1C(=O)CSc1nc2ccccc2[nH]1 (centres undefined) | inconclusive: 109% |
| CC(=O)Nc1ccc(S(=O)(=O)Nc2nc3ccccc3nc2Nc2cccc(S(N)(=O)=O)c2)cc1 | inconclusive: 105% |
| CCn1c(-c2cccnc2Cl)nc2cc(C)c(C)cc21 | inconclusive: 94.1% |
| Cc1ccsc1/C=N/NC(=O)c1ccc([N+](=O)[O-])cc1 | inconclusive: 93.9% |
| CCc1ccc(C(=O)COC(=O)c2cncc(Br)c2)cc1 | inconclusive: 112% |
| N/C(=N\OC(=O)c1cc(Cl)ccc1Cl)c1ccncc1 | inactive: 101% |
| CC(C)(C)NC(=O)COc1ccc(CNCCc2ccccc2)cc1 | inconclusive: 69.7% |
| O=[N+]([O-])c1ccc(-c2cn3nc(-c4ccccc4)c(-c4ccccc4)nc3n2)cc1 | inconclusive: 106% |
| CC(C)(C)N1OC2CC1c1nc3ccccc3n1C2 (centres undefined) | inconclusive: 112% |
| Cc1ccccc1Nc1nc(N)nc(CSc2nnc3ccccn23)n1 | inconclusive: 97.4% |
| Cc1ccc(-c2nc(C(Cl)Cl)c3ccccc3n2)cc1 | inconclusive: 96.8% |
| Cc1csc2c(=O)sc(NC(=O)c3cccs3)nc12 | inconclusive: 83.3% |
| Cc1sc2ncn(/N=C/c3ccco3)c(=O)c2c1C | inconclusive: 105% |
| C=C(C)c1cccc(C(C)(C)NC(=O)NCC2COCCO2)c1 (centres undefined) | inactive: 100% |
| CC(=O)c1ccc(NC(=S)NCCc2ccc(S(N)(=O)=O)cc2)cc1 | inconclusive: 98.3% |
| Cn1cccc1-c1cc(C(=O)N/N=C/c2cccc(O)c2)[nH]n1 | inactive: 96.6% |
| COc1ccc(C2CC(c3ccccc3)=NN2C(=O)CSc2ncn[nH]2)cc1 (centres undefined) | inconclusive: 87% |
| COc1ccccc1/C=C1\Cc2ccccc2C1=O | inconclusive: 69.2% |
| Cc1c(Cl)cccc1NC(=O)CSC(N)=O | inconclusive: 75% |
| CCCCC#Cc1ccc(C(=O)NNC(=O)Nc2ccccc2)o1 | inconclusive: 273% |
| Cc1cc2c(cc1C)NC1=C(N2)OC(c2cccc(O)c2)C1=O (centres undefined) | inconclusive: 113% |
| C[C@@H]1CN(c2c(F)c(N)c3c(=O)c(C(=O)O)cn(C4CC4)c3c2F)C[C@H](C)N1 | inactive: 102% |

| SMILES | binding response (% of control) |
| --- | --- |
| CCCCCCCc1nc2sc3c(c2c(=O)n1N)CC(C)(C)OC3 | inconclusive: 107% |
| CC(C)(C)c1cc(C(=O)NNC(=O)Nc2ccccc2)n(Cc2ccccc2)n1 | inconclusive: 56.6% |
| Cn1nc(C(F)(F)F)c(-c2ccccc2)c1NC(=O)c1nccnc1C(=O)O | inconclusive: 119% |
| COc1ccc(Nc2c([N+](=O)[O-])ccc3c2=NC2(CCCCC2)N=3)cc1 | inactive: 96.9% |
| Nc1[nH]n(-c2ccccc2)c(=O)c1N=Nc1ccc2ncsc2c1 | inconclusive: 100% |
| COc1ccc(-c2cc(C(F)F)n3ncc(C(=O)Nc4cccc(S(=O)(=O)N5CCOCC5)c4)c3n2)cc1 | inconclusive: 88.5% |
| COC(=O)c1c(NC(NC(=O)C(C)C)C(Cl)(Cl)Cl)sc2c1CCCC2 (centres undefined) | inactive: 87.1% |
| CSC(SC)=C(C#N)C(=O)c1ccccc1 | inconclusive: 113% |
| Cc1cc(/C=C(\C#N)C(=O)N2CCOCC2)c(C)n1C1CCCC1 | inconclusive: 194% |
| COc1ccc(C2c3c(ncn(CCCO)c3=N)Oc3ccc4ccccc4c32)cc1OC (centres undefined) | inconclusive: 80.8% |
| COc1cc(-c2c(C#N)c(=O)[nH]c3c2c(C)nn3-c2ccccc2)ccc1O | inactive: 109% |
| Cc1cc(N/N=C/c2cccc(Cl)c2)nc(-n2nc(C)cc2C)n1 | inconclusive: 171% |
| O=C(Nc1ccccc1)N1CCc2c([nH]c3ccccc23)C1C(F)(F)F (centres undefined) | inconclusive: 107% |
| CCOC(=O)Cc1csc(NC(=O)c2cc(C)cc(C)c2)n1 | inconclusive: 97.4% |
| CSc1nc2c(c(=O)[nH]1)C(c1ccccc1)C1=C(CC(C)(C)CC1=O)N2 (centres undefined) | inconclusive: 97.8% |
| CC1(c2nnc(-c3ccc(Cl)cc3)o2)CC(c2c(Cl)cccc2Cl)=NO1 (centres undefined) | inconclusive: 111% |
| NC(=O)CSc1nnc(-c2ccc(S(=O)(=O)N3CCCCC3)cc2)n1-c1ccccc1 | inactive: 111% |
| Cc1cc(-c2nnc3n2N=C(c2ccccc2Br)CS3)n[nH]1 | inconclusive: 35.6% |
| NC1=NC(c2ccc(Cl)cc2)C(C(=O)c2ccccc2)N1 (centres undefined) | inconclusive: 90.4% |
| COc1ccc(-c2ccc([C@H]3[C@@H]4C=CCC[C@@]4(C)C(=O)N3Cc3ccccc3)c(F)c2)cc1 | inconclusive: 92.7% |
| Cc1ccc([N+](=O)[O-])cc1N/C=C1\CCc2ccccc2C1=O | inactive: 94% |
| CCOc1ccc(NC(=O)c2ccc(NC(=O)Cc3n[nH]c(=O)c4ccccc34)cc2)cc1 | inconclusive: 90.5% |
| CN(C)c1ccc(/C=C/c2cccc[n+]2[O-])cc1 | inconclusive: 93.2% |

| SMILES | binding response (% of control) |
| --- | --- |
| CCOC(=O)c1cc2sccc2n1CC(=O)C(C)(C)C | inactive: 90.7% |
| CCCCNC(=O)c1cc(C)nn1-c1ccccc1 | inconclusive: 96% |
| Cc1cc(=O)[nH]c(SCC(=O)Nc2ccccc2[N+](=O)[O-])n1 | inconclusive: 106% |
| C/C(=N/O)c1no[n+]([O-])c1/C(C)=N\O | inconclusive: 44% |
| CCN(CC)S(=O)(=O)c1ccc(N2CCOCC2)c(NC(=O)COc2ccccc2C#N)c1 | inconclusive: 116% |
| COC(=O)C1=C(C(=O)OC)[C@@H]2N(C)c3ccccc3[C@@]23C[C@@H](C(=O)OC)N(C(=O)c2cc(C)oc2C)C3=N1 | inconclusive: 119% |
| Cc1cc(-c2nnc(SCC(=O)Nc3nccs3)o2)no1 | inconclusive: 113% |
| Cc1cc(-c2ccccc2)oc(=O)c1NC(=O)c1ccccc1 | inactive: 113% |
| Cc1ccc(NC(=O)Nc2cccs2)cc1 | inactive: 98.8% |
| CCOc1ccc(CC(=O)NNC(=O)NC2CCCCC2)cc1 | inactive: 94% |
| CCOc1cc(NC(=S)NC)c(OCC)cc1NC(=O)c1cccs1 | inconclusive: 83.8% |
| CS(=O)(=O)c1ccc2nc(NC(=O)c3ccc(NS(=O)(=O)c4cccc([N+](=O)[O-])c4)cc3)sc2c1 | inconclusive: 111% |
| Cc1ccc2oc(=O)c(/C=C(\O)c3cccs3)nc2c1 | inconclusive: 82.7% |
| Cc1ccc(/C=C2\SC(=S)N(CCC(=O)NNS(=O)(=O)c3ccccc3)C2=O)cc1 | inconclusive: 106% |
| CC1(c2ccccc2)O[C@@H]2C[C@H]3[C@@H]4CCC5=CC(=O)C=C[C@]5(C)[C@@]4(F)[C@@H](O)C[C@]3(C)[C@]2(C(=O)CO)O1 (some centres undefined) | inconclusive: 106% |
| CCN(CC)S(=O)(=O)c1ccc(/C=C/C(=O)Nc2ccc(N3CCOCC3)cc2)cc1 | inconclusive: 111% |
| O=C(c1ccccc1)c1ccc2nc(Nc3ccccc3)c3nncn3c2c1 | inconclusive: 109% |
| Cc1noc(C)c1C(=O)N1CCN(c2ccc(OCc3ccccc3)cc2)CC1 | inconclusive: 107% |
| O=c1c2c(nc3n1CCS3)c1cc(F)ccc1n2Cc1cc(=O)n2cc(Cl)ccc2n1 | inconclusive: 88% |
| OC(CNc1ccccc1)Cn1ccc2ccccc21 (centres undefined) | inconclusive: 110% |
| CCCCCn1c(C)c2c(OCC)cccc(=O)c2c1C | inconclusive: 97.2% |
| C=CCc1c(C)nc2ccc(C(=O)OCC)cc2c1Cl | inactive: 102% |
| COC(=O)c1sc(-c2ccc(C(C)(C)C)cc2)cc1NC(=O)CCC(=O)O | inconclusive: 132% |

| SMILES | binding response (% of control) |
| --- | --- |
| O=C(NCCc1ccncc1)Nc1ccccc1Cl | active: 194% [activator] |
| O=C(CSc1ncccc1C(=O)O)c1ccccc1F | inconclusive: 107% |
| CCOc1cc(C(N)=O)cc(Cl)c1OCC | inconclusive: 96.5% |
| Cc1ccc(C(=O)Nc2nc(-c3ccccn3)cs2)o1 | inconclusive: 420% |
| C/C=C\C=C/C(=O)Nc1cccc(C2=NOC3(C2)C[C@@H](C(N)=O)N(C(=O)/C=C/CC)C3)c1 (some centres undefined) | inconclusive: 89.2% |
| Cc1nc(SCC(=O)N2CCOCC2)c2c(=O)n(C)c(=O)n(C)c2n1 | inconclusive: 105% |
| Cc1cc2ccccc2n1CCNCc1c(C(=O)N2CCOCC2)nc2ccccn12 | inconclusive: 69.5% |
| CC1(C)CC(=O)C(CC2C(=O)CC(C)(C)CC2=O)C(=O)C1 | inconclusive: 241% |
| O=c1[nH]c(S)c(/C=C2\C=Nc3ccccc32)s1 | inconclusive: 116% |
| NCC(=O)c1cccc2ccc[n+]([O-])c12 | inconclusive: 133% |
| O=C(c1c[nH]c2ccccc12)C(F)(F)F | inconclusive: 140% |
| O=C(Cc1ccccc1)NCC(=O)N/N=C/c1cccnc1 | inconclusive: 112% |
| C=CCn1c(C2CC2)n[nH]c1=S | inconclusive: 92.5% |
| COCCSc1ccccc1C(=O)NCCc1ccccc1 | inconclusive: 102% |
| CC(=O)c1ccc(NC(=O)COC(=O)CCc2ccc(S(=O)(=O)N3CCOCC3)cc2)cc1 | inconclusive: 104% |
| CCN(CC)S(=O)(=O)c1cc(NC(=O)c2n[nH]c(=O)c3ccccc23)ccc1C | inconclusive: 110% |
| CCCCC(=O)OCC(=O)c1cc(C)n(-c2c(C)n(C)n(-c3ccccc3)c2=O)c1C | inactive: 95.4% |
| CCOC(=O)c1sc(N)c(C(=O)Nc2ccccc2OC)c1C | inactive: 120% |
| CC(C)c1nc2sc3c(=O)[nH]c(=S)[nH]c3c2c2c1CCCC2 | inconclusive: 86% |
| COc1ccc(C2CC3(O)NC(=O)C(C#N)(C3C)C2(C#N)C#N)cc1 (centres undefined) | inconclusive: 97.5% |
